# Experimental data as given in the supplement of paper PMC10849652.
# Sequences of proteins named here, by UniProt entry; tags and fusion partners are left off. A change or cut given only in a name is not applied to a line headed by its entry.
# UniProt Q9UQB8: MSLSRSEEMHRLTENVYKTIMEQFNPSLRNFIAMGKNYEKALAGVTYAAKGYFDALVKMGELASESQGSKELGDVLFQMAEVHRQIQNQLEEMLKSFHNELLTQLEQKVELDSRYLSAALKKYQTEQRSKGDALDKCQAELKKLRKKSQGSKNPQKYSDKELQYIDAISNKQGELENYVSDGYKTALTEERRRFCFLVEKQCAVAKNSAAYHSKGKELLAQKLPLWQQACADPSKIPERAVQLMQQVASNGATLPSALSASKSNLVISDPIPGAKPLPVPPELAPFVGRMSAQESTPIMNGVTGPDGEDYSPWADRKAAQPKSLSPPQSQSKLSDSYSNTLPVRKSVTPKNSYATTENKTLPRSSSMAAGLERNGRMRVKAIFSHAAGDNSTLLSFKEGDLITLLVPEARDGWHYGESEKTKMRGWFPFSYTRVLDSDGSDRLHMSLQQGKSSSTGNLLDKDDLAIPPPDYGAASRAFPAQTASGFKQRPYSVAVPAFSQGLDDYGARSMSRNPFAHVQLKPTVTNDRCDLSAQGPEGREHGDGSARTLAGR
# UniProt Q99933: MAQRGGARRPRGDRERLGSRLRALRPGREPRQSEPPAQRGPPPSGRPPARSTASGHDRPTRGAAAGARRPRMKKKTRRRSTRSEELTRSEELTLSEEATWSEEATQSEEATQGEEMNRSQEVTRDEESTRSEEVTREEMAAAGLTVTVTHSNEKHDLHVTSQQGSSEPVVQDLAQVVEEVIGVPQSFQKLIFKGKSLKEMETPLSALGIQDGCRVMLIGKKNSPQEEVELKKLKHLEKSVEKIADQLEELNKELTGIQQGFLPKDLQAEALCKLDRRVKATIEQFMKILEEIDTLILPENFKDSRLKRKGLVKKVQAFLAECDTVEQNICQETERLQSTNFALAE
# UniProt Q9NYF8, whole entry, looked up: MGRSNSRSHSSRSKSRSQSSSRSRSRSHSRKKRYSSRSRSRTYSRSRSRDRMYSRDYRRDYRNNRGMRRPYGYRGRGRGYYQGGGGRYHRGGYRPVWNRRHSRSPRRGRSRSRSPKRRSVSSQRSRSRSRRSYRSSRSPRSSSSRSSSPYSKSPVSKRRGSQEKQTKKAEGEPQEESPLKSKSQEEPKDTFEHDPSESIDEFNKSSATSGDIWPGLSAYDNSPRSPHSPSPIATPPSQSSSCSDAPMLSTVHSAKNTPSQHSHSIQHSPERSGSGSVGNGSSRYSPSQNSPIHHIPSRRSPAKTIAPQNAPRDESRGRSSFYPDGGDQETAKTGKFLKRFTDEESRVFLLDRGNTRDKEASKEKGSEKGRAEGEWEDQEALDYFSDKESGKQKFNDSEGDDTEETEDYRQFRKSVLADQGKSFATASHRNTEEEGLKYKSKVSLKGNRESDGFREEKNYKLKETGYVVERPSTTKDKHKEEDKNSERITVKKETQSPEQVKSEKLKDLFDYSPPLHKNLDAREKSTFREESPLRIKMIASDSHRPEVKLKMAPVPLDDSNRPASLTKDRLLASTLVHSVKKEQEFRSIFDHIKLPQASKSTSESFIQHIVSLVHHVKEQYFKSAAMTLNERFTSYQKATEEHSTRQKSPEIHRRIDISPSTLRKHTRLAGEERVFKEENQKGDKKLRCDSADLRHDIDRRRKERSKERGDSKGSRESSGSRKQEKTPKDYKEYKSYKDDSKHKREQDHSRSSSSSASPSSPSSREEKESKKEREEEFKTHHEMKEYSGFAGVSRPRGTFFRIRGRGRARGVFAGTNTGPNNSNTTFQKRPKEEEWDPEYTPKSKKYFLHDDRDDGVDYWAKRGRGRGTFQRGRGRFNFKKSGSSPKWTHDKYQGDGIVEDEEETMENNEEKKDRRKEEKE
# UniProt Q8TDH9: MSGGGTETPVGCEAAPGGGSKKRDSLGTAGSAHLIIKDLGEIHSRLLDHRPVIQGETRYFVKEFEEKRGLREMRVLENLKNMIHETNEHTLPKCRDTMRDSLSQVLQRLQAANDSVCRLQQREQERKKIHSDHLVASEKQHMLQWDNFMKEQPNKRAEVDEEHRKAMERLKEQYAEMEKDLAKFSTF
# UniProt Q9UL15: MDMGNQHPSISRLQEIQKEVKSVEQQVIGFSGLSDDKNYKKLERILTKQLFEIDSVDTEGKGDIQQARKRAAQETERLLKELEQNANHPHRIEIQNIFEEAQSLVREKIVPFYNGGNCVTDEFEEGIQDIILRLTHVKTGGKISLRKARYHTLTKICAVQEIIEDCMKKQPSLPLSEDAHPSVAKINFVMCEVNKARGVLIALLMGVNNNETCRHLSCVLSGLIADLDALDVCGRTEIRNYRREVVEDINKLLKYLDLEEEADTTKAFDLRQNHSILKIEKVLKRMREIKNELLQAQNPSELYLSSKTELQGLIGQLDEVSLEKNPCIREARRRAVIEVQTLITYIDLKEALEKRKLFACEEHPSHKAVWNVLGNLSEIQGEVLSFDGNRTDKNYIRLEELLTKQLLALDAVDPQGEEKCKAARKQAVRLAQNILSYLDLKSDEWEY
# UniProt Q92843: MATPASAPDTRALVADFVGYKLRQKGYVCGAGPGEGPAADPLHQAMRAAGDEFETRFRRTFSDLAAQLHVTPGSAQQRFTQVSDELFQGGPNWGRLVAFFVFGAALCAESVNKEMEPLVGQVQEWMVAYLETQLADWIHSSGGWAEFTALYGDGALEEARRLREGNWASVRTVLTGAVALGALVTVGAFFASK
# UniProt Q8TDN6: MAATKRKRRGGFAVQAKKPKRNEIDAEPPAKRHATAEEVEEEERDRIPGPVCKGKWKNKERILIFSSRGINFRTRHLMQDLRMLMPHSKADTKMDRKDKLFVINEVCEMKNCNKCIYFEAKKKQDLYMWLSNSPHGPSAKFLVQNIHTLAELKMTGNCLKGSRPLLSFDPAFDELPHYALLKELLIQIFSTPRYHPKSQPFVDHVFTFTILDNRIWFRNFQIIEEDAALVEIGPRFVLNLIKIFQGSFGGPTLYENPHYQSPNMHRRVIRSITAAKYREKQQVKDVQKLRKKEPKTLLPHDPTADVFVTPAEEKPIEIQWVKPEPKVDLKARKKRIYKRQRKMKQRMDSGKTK
# UniProt Q96KE9: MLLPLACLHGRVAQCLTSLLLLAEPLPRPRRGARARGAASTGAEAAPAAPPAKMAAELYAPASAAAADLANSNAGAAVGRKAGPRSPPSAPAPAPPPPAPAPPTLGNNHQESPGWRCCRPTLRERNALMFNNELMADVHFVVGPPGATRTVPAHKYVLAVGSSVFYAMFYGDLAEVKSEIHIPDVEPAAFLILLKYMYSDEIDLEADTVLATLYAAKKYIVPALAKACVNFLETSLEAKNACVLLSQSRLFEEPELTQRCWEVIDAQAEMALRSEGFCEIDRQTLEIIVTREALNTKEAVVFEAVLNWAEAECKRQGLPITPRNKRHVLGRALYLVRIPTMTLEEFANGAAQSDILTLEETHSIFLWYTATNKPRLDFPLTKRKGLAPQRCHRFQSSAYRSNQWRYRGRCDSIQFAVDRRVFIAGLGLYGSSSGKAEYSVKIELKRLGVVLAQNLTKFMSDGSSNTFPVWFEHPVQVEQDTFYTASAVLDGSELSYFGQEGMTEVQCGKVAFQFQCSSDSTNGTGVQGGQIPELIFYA
# UniProt Q86WA6: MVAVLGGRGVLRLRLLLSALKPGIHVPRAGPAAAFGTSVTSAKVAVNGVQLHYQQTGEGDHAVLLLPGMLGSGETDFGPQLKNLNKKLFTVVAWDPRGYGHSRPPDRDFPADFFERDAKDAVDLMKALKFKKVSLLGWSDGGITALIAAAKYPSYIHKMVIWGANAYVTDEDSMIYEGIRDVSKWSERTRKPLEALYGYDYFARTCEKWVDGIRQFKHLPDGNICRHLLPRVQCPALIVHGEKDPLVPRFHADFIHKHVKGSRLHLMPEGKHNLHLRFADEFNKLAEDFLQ
# UniProt O15155: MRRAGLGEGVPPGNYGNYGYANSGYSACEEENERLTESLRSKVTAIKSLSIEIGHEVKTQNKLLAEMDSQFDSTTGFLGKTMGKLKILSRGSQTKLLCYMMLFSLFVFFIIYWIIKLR
# UniProt O15392, whole entry, looked up: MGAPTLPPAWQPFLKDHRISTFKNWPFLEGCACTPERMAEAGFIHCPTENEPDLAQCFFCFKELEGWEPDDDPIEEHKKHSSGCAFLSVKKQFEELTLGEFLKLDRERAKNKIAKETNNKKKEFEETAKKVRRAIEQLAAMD
# UniProt P56945: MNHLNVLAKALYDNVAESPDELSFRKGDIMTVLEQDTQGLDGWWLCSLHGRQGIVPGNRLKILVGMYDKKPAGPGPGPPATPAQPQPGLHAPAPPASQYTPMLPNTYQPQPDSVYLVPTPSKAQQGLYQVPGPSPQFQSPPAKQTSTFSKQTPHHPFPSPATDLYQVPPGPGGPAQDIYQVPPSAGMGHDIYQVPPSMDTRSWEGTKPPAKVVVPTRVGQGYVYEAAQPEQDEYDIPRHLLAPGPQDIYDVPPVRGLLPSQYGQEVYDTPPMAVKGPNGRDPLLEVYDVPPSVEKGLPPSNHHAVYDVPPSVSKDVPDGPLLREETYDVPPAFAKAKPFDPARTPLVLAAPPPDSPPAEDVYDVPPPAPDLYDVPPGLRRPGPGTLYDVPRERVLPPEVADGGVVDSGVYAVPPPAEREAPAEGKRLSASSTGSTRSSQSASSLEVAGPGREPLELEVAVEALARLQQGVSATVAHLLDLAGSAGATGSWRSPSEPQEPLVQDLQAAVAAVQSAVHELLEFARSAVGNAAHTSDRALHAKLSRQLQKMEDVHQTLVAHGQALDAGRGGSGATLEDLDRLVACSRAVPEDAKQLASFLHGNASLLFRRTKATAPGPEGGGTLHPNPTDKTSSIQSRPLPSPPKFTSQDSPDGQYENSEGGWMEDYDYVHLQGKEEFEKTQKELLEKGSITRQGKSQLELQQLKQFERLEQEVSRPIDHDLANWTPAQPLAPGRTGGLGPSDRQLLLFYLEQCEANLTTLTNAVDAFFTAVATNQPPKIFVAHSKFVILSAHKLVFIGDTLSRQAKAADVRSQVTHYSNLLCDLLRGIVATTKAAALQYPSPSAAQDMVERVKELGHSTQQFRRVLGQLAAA
# UniProt O75934: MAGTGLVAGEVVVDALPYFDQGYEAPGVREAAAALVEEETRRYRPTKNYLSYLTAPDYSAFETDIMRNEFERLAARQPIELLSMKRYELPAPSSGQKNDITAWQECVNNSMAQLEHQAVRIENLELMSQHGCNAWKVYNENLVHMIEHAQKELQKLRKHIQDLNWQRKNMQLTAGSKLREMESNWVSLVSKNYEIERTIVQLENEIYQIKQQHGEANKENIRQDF
# UniProt P21953: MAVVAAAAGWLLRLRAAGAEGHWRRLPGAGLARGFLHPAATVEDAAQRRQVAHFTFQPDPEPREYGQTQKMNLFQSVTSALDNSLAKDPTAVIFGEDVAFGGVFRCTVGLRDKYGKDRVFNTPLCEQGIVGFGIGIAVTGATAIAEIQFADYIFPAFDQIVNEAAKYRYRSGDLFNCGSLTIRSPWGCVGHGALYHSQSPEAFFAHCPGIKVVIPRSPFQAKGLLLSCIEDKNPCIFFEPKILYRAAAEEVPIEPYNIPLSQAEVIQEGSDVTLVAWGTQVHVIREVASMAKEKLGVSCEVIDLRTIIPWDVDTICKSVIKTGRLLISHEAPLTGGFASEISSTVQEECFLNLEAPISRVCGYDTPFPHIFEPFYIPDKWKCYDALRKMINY
# UniProt Q9BXK5, whole entry, looked up: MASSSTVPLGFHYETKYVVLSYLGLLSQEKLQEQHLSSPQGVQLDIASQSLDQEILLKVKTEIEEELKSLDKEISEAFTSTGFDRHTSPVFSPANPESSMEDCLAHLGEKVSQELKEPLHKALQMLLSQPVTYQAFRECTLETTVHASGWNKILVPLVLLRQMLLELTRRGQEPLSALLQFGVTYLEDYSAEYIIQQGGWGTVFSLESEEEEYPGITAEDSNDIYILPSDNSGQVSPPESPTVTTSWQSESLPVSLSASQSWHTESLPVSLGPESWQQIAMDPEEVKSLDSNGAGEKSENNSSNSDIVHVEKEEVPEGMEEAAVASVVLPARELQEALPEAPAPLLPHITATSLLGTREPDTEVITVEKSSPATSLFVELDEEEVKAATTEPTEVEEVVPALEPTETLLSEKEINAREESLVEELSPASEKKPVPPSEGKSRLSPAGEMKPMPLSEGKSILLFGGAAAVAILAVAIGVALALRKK
# UniProt Q6QNY0: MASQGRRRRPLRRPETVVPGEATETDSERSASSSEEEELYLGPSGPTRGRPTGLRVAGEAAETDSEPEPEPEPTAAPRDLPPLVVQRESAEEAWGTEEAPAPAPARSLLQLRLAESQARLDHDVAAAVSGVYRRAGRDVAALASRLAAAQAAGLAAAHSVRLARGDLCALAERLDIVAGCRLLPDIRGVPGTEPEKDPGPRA
# The other results are listed elsewhere or left out.
# Compound: CC1=C(C(CC(=O)N1)C2=CC=C(C=C2)C(F)(F)F)C(=O)NC3=C(C=C4C(=C3)C=NN4)F
# Assay: log2 fold change, soluble protein after heating vs DMSO (PISA); higher = thermal stabilisation; K562 lysate, 10 uM; active = over 0.2 and 3.5 SD of the protein, either way, in both replicates (recomputed)
# Outline: (§1)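 K562 pellets were dounce-homogenised in PBS pH 7.4 containing 1 mM MgCl2, and the crude extract, at 1 mg/mL protein, was exposed to 10 μM compound for 30 min. Aliquots were heated for 3 min across 48°C-58°C, pooled, brought to 0.5% NP-40 at 4°C and spun at 21,000xg for 90 min, with the supernatant taken as soluble protein. TMTpro 16plex LC-MS/MS with equalised channel sums quantified that protein. Values are log-two fold changes in thermal stability relative to solvent controls, taken from duplicates.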
row,Target,log2 fold change
1,BRD8 isoform 2 (UniProt Q9H0E9),inactive: -0.004
2,BAIAP2 (UniProt Q9UQB8),inactive: -0.032
3,BAG6 isoform 3 (UniProt P46379),inactive: 0.02
4,BPTF (UniProt Q12830),inactive: -0.005
5,BAG1 (UniProt Q99933),inactive: -0.022
6,BCL7B (UniProt Q9BQE9),inactive: 0.101
7,BCLAF1 (UniProt Q9NYF8),inactive: -0.014
8,BLOC1S5 (UniProt Q8TDH9),inactive: 0.027
9,BTN2A1 (UniProt Q7KYR7),inactive: 0.056
10,BAG5 isoform 2 (UniProt Q9UL15),inactive: 0.037
11,BCL2L2 isoform 2 (UniProt Q92843),inactive: -0.039
12,BRCA1 isoform 7 (UniProt P38398),inactive: 0.039
13,BRIX1 (UniProt Q8TDN6),inactive: 0.005
14,BCL7C isoform 2 (UniProt Q8WUZ0),inactive: 0.061
15,BTBD6 (UniProt Q96KE9),inactive: -0.132
16,BCOR (UniProt Q6W2J9),inactive: 0.054
17,BORCS5 (UniProt Q969J3),inactive: 0.153

row,Target,log2 fold change
1,BPHL (UniProt Q86WA6),inactive: 0
2,BET1 (UniProt O15155),inactive: 0.033
3,BNIP2 (UniProt J3KN59),inactive: 0.013
4,BORCS6 (UniProt Q96GS4),inactive: 0.029
5,BIRC5 (UniProt O15392),inactive: -0.05
6,BCAR1 isoform 6 (UniProt P56945),inactive: 0.03
7,BAG2 (UniProt O95816),inactive: -0.03
8,BARD1 (UniProt Q99728),inactive: -0.095
9,BTAF1 (UniProt O14981),inactive: 0.018
10,BSG (UniProt P35613),inactive: 0.018
11,BCAS2 (UniProt O75934),inactive: 0
12,BCKDHB (UniProt P21953),inactive: 0.016
13,BTF3L4 (UniProt Q96K17),inactive: -0.003
14,BID isoform 2 (UniProt P55957),inactive: 0
15,BCL2L13 (UniProt Q9BXK5),inactive: -0.001
16,BCKDK (UniProt O14874),inactive: -0.048
17,BLOC1S3 (UniProt Q6QNY0),inactive: -0.026

# Compound: CC1=C(C2=C(C=C1)C(=O)C3=CC=CC=C3N2CCCN)C
# Assay: as above
# Outline: as §1
row,Target,log2 fold change
1,BRD8 isoform 2 (UniProt Q9H0E9),inactive: -0.022
2,BAIAP2 (UniProt Q9UQB8),inactive: 0.025
3,BAG6 isoform 3 (UniProt P46379),inactive: 0.015
4,BPTF (UniProt Q12830),inactive: -0.02
5,BAG1 (UniProt Q99933),inactive: 0.049
6,BCL7B (UniProt Q9BQE9),inactive: -0.029
7,BCLAF1 (UniProt Q9NYF8),inactive: 0.008
8,BLOC1S5 (UniProt Q8TDH9),inactive: -0.032
9,BTN2A1 (UniProt Q7KYR7),inactive: -0.144
10,BAG5 isoform 2 (UniProt Q9UL15),inactive: -0.02
11,BCL2L2 isoform 2 (UniProt Q92843),inactive: -0.025
12,BRCA1 isoform 7 (UniProt P38398),inactive: -0.018
13,BRIX1 (UniProt Q8TDN6),inactive: -0.047
14,BCL7C isoform 2 (UniProt Q8WUZ0),inactive: -0.063
15,BTBD6 (UniProt Q96KE9),inactive: -0.149
16,BCOR (UniProt Q6W2J9),inactive: -0.051
17,BORCS5 (UniProt Q969J3),inactive: -0.012

row,Target,log2 fold change
1,BPHL (UniProt Q86WA6),inactive: -0.015
2,BET1 (UniProt O15155),inactive: -0.01
3,BNIP2 (UniProt J3KN59),inactive: 0.034
4,BORCS6 (UniProt Q96GS4),inactive: 0.06
5,BIRC5 (UniProt O15392),inactive: -0.1
6,BCAR1 isoform 6 (UniProt P56945),inactive: -0.056
7,BAG2 (UniProt O95816),inactive: 0.018
8,BARD1 (UniProt Q99728),inactive: 0.008
9,BTAF1 (UniProt O14981),inactive: 0.023
10,BSG (UniProt P35613),inactive: -0.012
11,BCAS2 (UniProt O75934),inactive: -0.03
12,BCKDHB (UniProt P21953),inactive: -0.022
13,BTF3L4 (UniProt Q96K17),inactive: 0.014
14,BID isoform 2 (UniProt P55957),inactive: -0.078
15,BCL2L13 (UniProt Q9BXK5),inactive: 0.003
16,BCKDK (UniProt O14874),inactive: 0.004
17,BLOC1S3 (UniProt Q6QNY0),inactive: -0.026
